One substance from paper PMC8321896 can be followed below.

This experiment concerns the target T1, NRF2 (human (endogenous in DU-145)) (UniProt Q16236).
T1 sequence: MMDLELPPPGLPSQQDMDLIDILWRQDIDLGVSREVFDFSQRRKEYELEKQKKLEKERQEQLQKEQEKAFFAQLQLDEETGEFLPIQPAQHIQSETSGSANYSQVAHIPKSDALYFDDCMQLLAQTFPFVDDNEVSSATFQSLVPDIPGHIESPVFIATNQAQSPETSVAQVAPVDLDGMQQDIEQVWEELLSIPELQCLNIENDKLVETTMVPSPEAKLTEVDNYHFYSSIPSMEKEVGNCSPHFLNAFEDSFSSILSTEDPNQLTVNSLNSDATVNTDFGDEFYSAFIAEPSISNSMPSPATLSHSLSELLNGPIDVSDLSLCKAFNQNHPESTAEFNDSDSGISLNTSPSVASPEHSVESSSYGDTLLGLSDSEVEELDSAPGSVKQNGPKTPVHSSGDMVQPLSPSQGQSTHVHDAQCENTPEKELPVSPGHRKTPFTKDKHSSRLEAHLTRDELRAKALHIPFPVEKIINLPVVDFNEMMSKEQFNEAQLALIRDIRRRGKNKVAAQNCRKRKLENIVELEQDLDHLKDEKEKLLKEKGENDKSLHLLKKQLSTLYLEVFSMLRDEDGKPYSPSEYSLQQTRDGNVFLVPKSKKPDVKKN
Description: re-ChIP (sequential chromatin immunoprecipitation); formaldehyde cross-linked soluble chromatin precipitated with a first antibody (anti-MUC1-C or anti-NRF2), then reprecipitated with a second antibody or control IgG; read out by qPCR of promoter or intron regions (PBRM1, ARID2, BRD7, SLC7A11, G6PD); DU-145 and LNCaP-AI cells.

No constants are given. Whether binding was seen depends on the method and setting. Binding calls can cover weak binding; strength is not graded here.

Turning to MUC1-C, the binding entry is on record as “binds”.
